This assay addresses T1, protein tyrosine phosphatase 1B (PTP1B) (human (endogenous in U251 and KM12SM)) (UniProt P18031).
T1 sequence: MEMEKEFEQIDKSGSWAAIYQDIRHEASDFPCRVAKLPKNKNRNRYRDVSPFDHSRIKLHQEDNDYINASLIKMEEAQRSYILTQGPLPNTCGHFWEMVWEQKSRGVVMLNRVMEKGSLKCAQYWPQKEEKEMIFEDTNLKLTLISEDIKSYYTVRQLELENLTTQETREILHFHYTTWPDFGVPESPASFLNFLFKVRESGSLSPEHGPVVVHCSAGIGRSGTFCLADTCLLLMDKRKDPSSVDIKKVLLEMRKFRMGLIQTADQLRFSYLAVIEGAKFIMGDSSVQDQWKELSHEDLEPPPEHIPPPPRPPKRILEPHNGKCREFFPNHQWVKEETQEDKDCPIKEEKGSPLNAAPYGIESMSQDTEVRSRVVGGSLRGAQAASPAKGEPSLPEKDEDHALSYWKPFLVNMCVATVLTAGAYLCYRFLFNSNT
The assay can be described thus: co-IP; PTP1B immunoprecipitation and Western blot of associated proteins in U251 GBM and KM12SM CRC cells. On the technique in general: Immunoblotting shows a protein as a band on a membrane.

Protein sequences, listed by entry. Tags and fused reporters are not part of them. Residues count along the entry.
UniProt Q04206: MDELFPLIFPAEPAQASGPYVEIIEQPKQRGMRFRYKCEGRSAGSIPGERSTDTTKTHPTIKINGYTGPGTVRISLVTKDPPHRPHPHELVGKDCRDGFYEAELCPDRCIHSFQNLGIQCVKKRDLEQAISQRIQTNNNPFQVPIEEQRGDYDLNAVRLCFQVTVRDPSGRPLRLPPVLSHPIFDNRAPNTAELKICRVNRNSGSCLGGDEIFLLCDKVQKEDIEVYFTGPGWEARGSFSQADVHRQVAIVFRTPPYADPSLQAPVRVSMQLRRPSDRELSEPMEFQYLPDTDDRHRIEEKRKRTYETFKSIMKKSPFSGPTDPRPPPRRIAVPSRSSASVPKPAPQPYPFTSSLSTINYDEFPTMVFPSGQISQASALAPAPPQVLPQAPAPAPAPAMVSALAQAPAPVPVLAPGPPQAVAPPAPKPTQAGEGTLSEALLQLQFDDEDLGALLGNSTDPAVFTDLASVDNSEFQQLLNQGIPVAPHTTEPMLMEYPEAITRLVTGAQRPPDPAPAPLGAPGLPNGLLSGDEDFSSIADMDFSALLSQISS
UniProt P24821, residues 23-2201: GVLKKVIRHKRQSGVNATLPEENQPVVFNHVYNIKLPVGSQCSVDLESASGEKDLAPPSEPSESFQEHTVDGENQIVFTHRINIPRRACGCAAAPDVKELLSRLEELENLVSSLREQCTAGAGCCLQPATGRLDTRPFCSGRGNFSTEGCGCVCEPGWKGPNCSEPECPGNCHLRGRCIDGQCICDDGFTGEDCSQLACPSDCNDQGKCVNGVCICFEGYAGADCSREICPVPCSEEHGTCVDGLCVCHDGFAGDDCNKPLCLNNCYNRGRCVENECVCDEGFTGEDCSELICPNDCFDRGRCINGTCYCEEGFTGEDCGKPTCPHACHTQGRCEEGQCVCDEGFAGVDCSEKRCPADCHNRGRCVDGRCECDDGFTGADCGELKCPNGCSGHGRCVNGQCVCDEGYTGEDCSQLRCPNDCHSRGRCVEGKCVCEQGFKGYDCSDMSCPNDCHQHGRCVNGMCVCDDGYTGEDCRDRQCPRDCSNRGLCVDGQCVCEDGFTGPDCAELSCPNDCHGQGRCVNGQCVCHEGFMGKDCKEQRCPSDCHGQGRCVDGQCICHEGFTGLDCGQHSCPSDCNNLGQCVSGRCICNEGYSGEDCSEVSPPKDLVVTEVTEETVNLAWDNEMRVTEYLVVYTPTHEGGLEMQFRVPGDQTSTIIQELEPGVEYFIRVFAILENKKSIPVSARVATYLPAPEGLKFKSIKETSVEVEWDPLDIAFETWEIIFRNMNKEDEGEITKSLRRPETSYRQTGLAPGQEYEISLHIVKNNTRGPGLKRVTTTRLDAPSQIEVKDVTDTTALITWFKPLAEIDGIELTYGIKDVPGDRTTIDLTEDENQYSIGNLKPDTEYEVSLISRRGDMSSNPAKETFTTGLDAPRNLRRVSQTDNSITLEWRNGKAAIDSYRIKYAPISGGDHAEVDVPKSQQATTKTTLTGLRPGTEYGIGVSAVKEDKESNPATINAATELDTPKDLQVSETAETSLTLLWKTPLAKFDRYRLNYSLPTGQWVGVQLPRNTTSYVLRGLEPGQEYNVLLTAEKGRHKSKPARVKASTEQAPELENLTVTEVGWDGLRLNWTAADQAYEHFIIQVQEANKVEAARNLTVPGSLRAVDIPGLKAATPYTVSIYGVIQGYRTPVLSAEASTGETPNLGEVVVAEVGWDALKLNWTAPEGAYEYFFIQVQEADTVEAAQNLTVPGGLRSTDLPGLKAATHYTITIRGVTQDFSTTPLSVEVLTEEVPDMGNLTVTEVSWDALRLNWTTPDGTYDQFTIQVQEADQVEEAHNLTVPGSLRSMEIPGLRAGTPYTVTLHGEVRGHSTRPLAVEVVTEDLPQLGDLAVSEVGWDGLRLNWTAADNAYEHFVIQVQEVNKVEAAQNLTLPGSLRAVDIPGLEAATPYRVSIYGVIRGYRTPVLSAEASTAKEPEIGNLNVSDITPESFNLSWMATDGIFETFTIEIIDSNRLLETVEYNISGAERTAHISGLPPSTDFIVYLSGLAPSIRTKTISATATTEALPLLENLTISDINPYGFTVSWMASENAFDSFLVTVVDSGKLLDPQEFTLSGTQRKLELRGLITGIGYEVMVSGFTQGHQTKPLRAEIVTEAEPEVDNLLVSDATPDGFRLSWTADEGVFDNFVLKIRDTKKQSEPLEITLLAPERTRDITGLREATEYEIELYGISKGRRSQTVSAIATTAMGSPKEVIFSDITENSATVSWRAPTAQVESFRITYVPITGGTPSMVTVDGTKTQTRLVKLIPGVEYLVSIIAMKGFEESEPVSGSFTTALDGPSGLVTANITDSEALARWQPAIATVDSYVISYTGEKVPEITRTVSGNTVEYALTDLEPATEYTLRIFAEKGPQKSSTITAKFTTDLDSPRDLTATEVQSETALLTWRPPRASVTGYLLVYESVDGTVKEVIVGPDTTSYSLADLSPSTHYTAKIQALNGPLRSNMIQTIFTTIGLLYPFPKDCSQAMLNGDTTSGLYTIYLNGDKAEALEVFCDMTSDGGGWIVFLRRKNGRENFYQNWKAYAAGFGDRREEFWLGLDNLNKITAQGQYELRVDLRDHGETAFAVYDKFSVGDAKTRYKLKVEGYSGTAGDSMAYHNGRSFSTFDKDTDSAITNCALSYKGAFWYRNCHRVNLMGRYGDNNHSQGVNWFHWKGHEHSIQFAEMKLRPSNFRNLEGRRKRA
UniProt P78504, residues 34-1218: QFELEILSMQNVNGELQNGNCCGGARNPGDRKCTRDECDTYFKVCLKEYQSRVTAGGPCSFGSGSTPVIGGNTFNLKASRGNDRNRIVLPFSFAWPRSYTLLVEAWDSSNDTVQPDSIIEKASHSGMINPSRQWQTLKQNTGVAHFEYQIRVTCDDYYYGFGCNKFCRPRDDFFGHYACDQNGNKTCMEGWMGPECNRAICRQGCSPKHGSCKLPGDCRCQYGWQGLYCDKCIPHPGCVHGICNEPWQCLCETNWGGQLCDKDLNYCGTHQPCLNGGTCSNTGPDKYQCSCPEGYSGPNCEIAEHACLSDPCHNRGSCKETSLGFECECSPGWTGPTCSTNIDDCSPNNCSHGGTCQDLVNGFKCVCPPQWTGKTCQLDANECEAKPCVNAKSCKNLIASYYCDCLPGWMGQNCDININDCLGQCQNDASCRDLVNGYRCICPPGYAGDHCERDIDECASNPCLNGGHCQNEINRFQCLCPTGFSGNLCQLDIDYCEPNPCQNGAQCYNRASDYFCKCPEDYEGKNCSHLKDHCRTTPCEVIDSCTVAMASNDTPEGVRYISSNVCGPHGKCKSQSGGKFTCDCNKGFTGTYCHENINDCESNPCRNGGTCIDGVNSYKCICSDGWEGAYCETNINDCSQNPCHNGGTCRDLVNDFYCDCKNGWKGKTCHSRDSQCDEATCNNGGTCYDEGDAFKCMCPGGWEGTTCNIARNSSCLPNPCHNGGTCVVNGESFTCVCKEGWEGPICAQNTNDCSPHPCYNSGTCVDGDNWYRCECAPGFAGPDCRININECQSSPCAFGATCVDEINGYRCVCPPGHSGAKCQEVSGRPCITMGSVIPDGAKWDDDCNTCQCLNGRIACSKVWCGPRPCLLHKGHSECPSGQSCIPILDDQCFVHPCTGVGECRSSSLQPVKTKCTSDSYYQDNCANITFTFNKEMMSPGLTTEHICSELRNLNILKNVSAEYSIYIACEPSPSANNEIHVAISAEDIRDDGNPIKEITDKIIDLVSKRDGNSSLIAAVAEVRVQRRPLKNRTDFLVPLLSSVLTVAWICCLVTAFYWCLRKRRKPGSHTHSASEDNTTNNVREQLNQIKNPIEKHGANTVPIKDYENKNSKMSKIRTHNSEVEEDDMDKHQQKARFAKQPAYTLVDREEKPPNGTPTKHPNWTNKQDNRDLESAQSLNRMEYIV

These are yes or no findings as the source states them, for the method shown. Binding seen in cells or lysates may run through a third protein. Some binding calls cover weakened binding; strength is not graded here.

For “NF-κB p65 subunit (RELA) (from UniProt Q04206 1-551)”, the binding entry was “binds”. In the case of “Tenascin-C (TNC) (from UniProt P24821 23-2201)” it was “binds”. In the case of JAG1 (from UniProt P78504 34-1218) it was “binds”.

B1: SLC16A3 (protein, UniProt O15427 1-465)
chain: MGGAVVDEGPTGVKAPDGGWGWAVLFGCFVITGFSYAFPKAVSVFFKELIQEFGIGYSDTAWISSILLAMLYGTGPLCSVCVNRFGCRPVMLVGGLFASLGMVAASFCRSIIQVYLTTGVITGLGLALNFQPSLIMLNRYFSKRRPMANGLAAAGSPVFLCALSPLGQLLQDRYGWRGGFLILGGLLLNCCVCAALMRPLVVTAQPGSGPPRPSRRLLDLSVFRDRGFVLYAVAASVMVLGLFVPPVFVVSYAKDLGVPDTKAAFLLTILGFIDIFARPAAGFVAGLGKVRPYSVYLFSFSMFFNGLADLAGSTAGDYGGLVVFCIFFGISYGMVGALQFEVLMAIVGTHKFSSAIGLVLLMEAVAVLVGPPSGGKLLDATHVYMYVFILAGAEVLTSSLILLLGNFFCIRKKPKEPQPEVAAAEEEKLHKPPADSGVDLREVEHFLKAEPEKNGEVVHTPETSV
As to B1, the binding result is “binds”.

B2: ABCF2 (protein, UniProt Q9UG63 1-623)
chain: MPSDLAKKKAAKKKEAAKARQRPRKGHEENGDVVTEPQVAEKNEANGRETTEVDLLTKELEDFEMKKAAARAVTGVLASHPNSTDVHIINLSLTFHGQELLSDTKLELNSGRRYGLIGLNGIGKSMLLSAIGKREVPIPEHIDIYHLTREMPPSDKTPLHCVMEVDTERAMLEKEAERLAHEDAECEKLMELYERLEELDADKAEMRASRILHGLGFTPAMQRKKLKDFSGGWRMRVALARALFIRPFMLLLDEPTNHLDLDACVWLEEELKTFKRILVLVSHSQDFLNGVCTNIIHMHNKKLKYYTGNYDQYVKTRLELEENQMKRFHWEQDQIAHMKNYIARFGHGSAKLARQAQSKEKTLQKMMASGLTERVVSDKTLSFYFPPCGKIPPPVIMVQNVSFKYTKDGPCIYNNLEFGIDLDTRVALVGPNGAGKSTLLKLLTGELLPTDGMIRKHSHVKIGRYHQHLQEQLDLDLSPLEYMMKCYPEIKEKEEMRKIIGRYGLTGKQQVSPIRNLSDGQKCRVCLAWLAWQNPHMLFLDEPTNHLDIETIDALADAINEFEGGMMLVSHDFRLIQQVAQEIWVCEKQTITKWPGDILAYKEHLKSKLVDEEPQLTKRTHNV
With B2, the binding result was “binds”.

B3: RHOV (protein, UniProt Q96L33 1-236)
chain: MPPRELSEAEPPPLRAPTPPPRRRSAPPELGIKCVLVGDGAVGKSSLIVSYTCNGYPARYRPTALDTFSVQVLVDGAPVRIELWDTAGQEDFDRLRSLCYPDTDVFLACFSVVQPSSFQNITEKWLPEIRTHNPQAPVLLVGTQADLRDDVNVLIQLDQGGREGPVPQPQAQGLAEKIRACCYLECSALTQKNLKEVFDSAILSAIEHKARLEKKLNAKGVRTLSRCRWKKFFCFV
Turning to B3, the binding result is given as “binds”.

B4: ITGA6 (protein, UniProt P23229 24-1130)
chain: FNLDTREDNVIRKYGDPGSLFGFSLAMHWQLQPEDKRLLLVGAPRAEALPLQRANRTGGLYSCDITARGPCTRIEFDNDADPTSESKEDQWMGVTVQSQGPGGKVVTCAHRYEKRQHVNTKQESRDIFGRCYVLSQNLRIEDDMDGGDWSFCDGRLRGHEKFGSCQQGVAATFTKDFHYIVFGAPGTYNWKGIVRVEQKNNTFFDMNIFEDGPYEVGGETEHDESLVPVPANSYLGLLFLTSVSYTDPDQFVYKTRPPREQPDTFPDVMMNSYLGFSLDSGKGIVSKDEITFVSGAPRANHSGAVVLLKRDMKSAHLLPEHIFDGEGLASSFGYDVAVVDLNKDGWQDIVIGAPQYFDRDGEVGGAVYVYMNQQGRWNNVKPIRLNGTKDSMFGIAVKNIGDINQDGYPDIAVGAPYDDLGKVFIYHGSANGINTKPTQVLKGISPYFGYSIAGNMDLDRNSYPDVAVGSLSDSVTIFRSRPVINIQKTITVTPNRIDLRQKTACGAPSGICLQVKSCFEYTANPAGYNPSISIVGTLEAEKERRKSGLSSRVQFRNQGSEPKYTQELTLKRQKQKVCMEETLWLQDNIRDKLRPIPITASVEIQEPSSRRRVNSLPEVLPILNSDEPKTAHIDVHFLKEGCGDDNVCNSNLKLEYKFCTREGNQDKFSYLPIQKGVPELVLKDQKDIALEITVTNSPSNPRNPTKDGDDAHEAKLIATFPDTLTYSAYRELRAFPEKQLSCVANQNGSQADCELGNPFKRNSNVTFYLVLSTTEVTFDTPDLDINLKLETTSNQDNLAPITAKAKVVIELLLSVSGVAKPSQVYFGGTVVGEQAMKSEDEVGSLIEYEFRVINLGKPLTNLGTATLNIQWPKEISNGKWLLYLVKVESKGLEKVTCEPQKEINSLNLTESHNSRKKREITEKQIDDNRKFSLFAERKYQTLNCSVNVNCVNIRCPLRGLDSKASLILRSRLWNSTFLEEYSKLNYLDILMRAFIDVTAAAENIRLPNAGTQVRVTVFPSKTVAQYSGVPWWIILVAILAGILMLALLVFILWKCGFFKRSRYDDSVPRYHAVRIRKEEREIKDEKYIDNLEKKQWITKWNENESYS
As to B4, the binding entry is given as “binds”.

For the origin of these results see publication PMC10645886.
